# Values of other authors, collected in article PMC11313180 (International Journal of Molecular Sciences, 2024).
# Tested on: squamous carcinoma cell line Cal27
# Conditions: read-out: IC50 cellular HDAC assay in Cal27, ref [29]; cited from earlier work
smiles,measurement,value
O=C(CCCCCCC(=O)Nc1ccccc1)NO [vorinostat],IC50,0.88 µM
